The values that follow come from the supplement of paper PMC4635364.

The subject of test [1] is ReNCell VM. In words: neuronal differentiation score (DCX+ cell fraction vs untreated, manual image score) (score (-3 to 3)); higher = more neuronal differentiation. The following applies: 2 uM, 2 weeks.
Test [2] deals with ReNCell VM. The test is described as follows: dopaminergic neuron differentiation score (TH+ cell fraction vs untreated, manual image score) (score (0 to 3)); higher = more TH+ dopaminergic neuron differentiation. The following applies: 2 uM, 4 weeks, BDNF 10 ng/ml + GDNF 10 ng/ml.

Structures can show the parent of a compound that is named as a salt. This is one part of the list. This data set is noisy: repeats of one test often differ as much as different tests do.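 Human fetal ventral-midbrain neural progenitor line ReNCell VM, differentiated without mitogens. Images stained for doublecortin (early neurons) or tyrosine hydroxylase (dopaminergic neurons) were scored by blinded raters against untreated wells (0 = no change). Repeats and both raters were averaged, and compounds averaging 2 or higher were picked as hits for retesting.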

With `CN(C)C(=O)N=NC(=O)N(C)C` [N,N,N',N'-Tetramethylazodicarboxamide], the neuronal differentiation score in test [1] (library: LOPAC) is inactive: 0. Besides, the “dopaminergic neuron differentiation score” value in test [2] (library: LOPAC) is inactive: 0.

In the case of `O=C1CCC(N2C(=O)c3ccccc3C2=O)C(=O)N1` (configuration not stated), the neuronal differentiation score in test [1] (library: Spectrum) is inactive: 0. Further, in test [2] (library: Spectrum), the “dopaminergic neuron differentiation score” value is inactive: 0.

Take `NC/C=C/C(=O)O` [(E)-4-amino-2-butenoic acid]: the neuronal differentiation score in test [1] (library: LOPAC) is inactive: 0. The “dopaminergic neuron differentiation score” value in test [2] (library: LOPAC) was inactive: 0.

Take `CCCNC(=O)N1N=C(c2ccc(N)cc2)c2cc3c(cc2C1C)OCO3` (configuration not stated): in test [1] (library: Tocriscreen), the neuronal differentiation score was inactive: 0. Besides, the “dopaminergic neuron differentiation score” value in test [2] (library: Tocriscreen) is inactive: 0.

Take `COc1ccc(C(=O)c2ccccc2)c(O)c1`: in test [1] (library: Spectrum), the neuronal differentiation score was inactive: 0. In addition, the “dopaminergic neuron differentiation score” value in test [2] (library: Spectrum) is inactive: 0.

Take `CC(C)Cc1ccc([C@H](C)C(=O)O)cc1` [S-(+)-ibuprofen]: in test [1] (library: Prestwick), the neuronal differentiation score is inactive: 0. In test [2] (library: Prestwick), the “dopaminergic neuron differentiation score” value was inactive: 0.

As for `Nc1nc(Cl)nc2c1ncn2[C@H]1C[C@H](O)[C@@H](CO)O1` [Cladribine], the neuronal differentiation score in test [1] (library: Prestwick) is inactive: 0. In addition, the “dopaminergic neuron differentiation score” value in test [2] (library: Prestwick) was inactive: 0.

Turning to `Cc1cn2c(=O)c3ccccc3nc2n2c(=O)c3ccccc3nc12` [6-methyl-5,7a,13,13b-tetraaza-pentaphene-8,14-dione], the neuronal differentiation score in test [1] (library: Natural) was inactive: 1. Further, in test [2] (library: Natural), the “dopaminergic neuron differentiation score” value was inactive: 0.

Consider `CCOC(=O)[C@H](CCc1ccccc1)N[C@@H](C)C(=O)N1Cc2ccccc2C[C@H]1C(=O)O` [Quinapril HCl], for which, in test [1] (library: Prestwick), the neuronal differentiation score is inactive: 0. Besides, the “dopaminergic neuron differentiation score” value in test [2] (library: Prestwick) was inactive: 0.

With `O=C(CCCN1CCC(O)(c2ccc(Cl)cc2)CC1)c1ccc(F)cc1`, the neuronal differentiation score in test [1] (library: Spectrum) was inactive: 0. Moreover, the “dopaminergic neuron differentiation score” value in test [2] (library: Spectrum) is inactive: 0.

As for `CC[C@@H](CO)NCCN[C@@H](CC)CO` [Ethambutol dihydrochloride], the neuronal differentiation score in test [1] (library: Prestwick) is inactive: 0. Besides, the “dopaminergic neuron differentiation score” value in test [2] (library: Prestwick) was inactive: 0.

For `NCCc1c[nH]cn1`, in test [1] (library: Spectrum), the neuronal differentiation score is inactive: 0. The “dopaminergic neuron differentiation score” value in test [2] (library: Spectrum) was inactive: 0.

With `CO[C@H]1C[C@H](O[C@H]2[C@H](C)O[C@@H](O[C@@H]3/C(C)=C/C[C@@H]4C[C@@H](C[C@]5(C=C[C@H](C)[C@@H](C6CCCCC6)O5)O4)OC(=O)[C@@H]4C=C(C)[C@@H](O)[C@H]5OC/C(=C\C=C\[C@@H]3C)[C@]54O)C[C@@H]2OC)O[C@@H](C)[C@@H]1O`, in test [1] (library: Spectrum), the neuronal differentiation score is inactive: 0. Further, the “dopaminergic neuron differentiation score” value in test [2] (library: Spectrum) is inactive: 1.

In the case of `OCc1ccccc1O`, the neuronal differentiation score in test [1] (library: Spectrum) is inactive: 0. Besides, in test [2] (library: Spectrum), the “dopaminergic neuron differentiation score” value was inactive: 0.

For `C[C@@H]1C[C@H]2[C@@H]3CCC4=CC(=O)C=C[C@]4(C)[C@@]3(F)[C@@H](O)C[C@]2(C)[C@@]1(O)C(=O)CO`, the neuronal differentiation score in test [1] (library: Spectrum) was inactive: 0. Besides, the “dopaminergic neuron differentiation score” value in test [2] (library: Spectrum) was inactive: 0.

For the molecule `COC(=O)c1c(C)cc(OC(=O)c2c(C)cc(O)c(C=O)c2O)c(C)c1O` [Atranorin], in test [1] (library: Phytochemical), the neuronal differentiation score is inactive: 0. In test [2] (library: Phytochemical), the “dopaminergic neuron differentiation score” value was inactive: 0.
